Laboratory results from PubChem BioAssay AID2685 (National Center for Advancing Translational Sciences (NCATS), 2010).
The other results are listed elsewhere or left out. Further columns of the screen follow, without active or inactive calls. The list favours compounds with an active or inconclusive main result. Words in brackets tell the shape of the fitted curve; partial curves, single points and poor fits give uncertain potencies.

Assay: qHTS Assay for Lipid Storage Modulators in Drosophila S3 Cells;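 on cell number change: cells counted by Cell Tracker Red CMTPX staining in the red channel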
Settings: BODIPY lipid droplet fluorescence, 18-24 h; for cell number change: measured here: cell count max response, cells fed with added oleic acid
In short: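 Drosophila S3 cells loaded with oleic acid (400 uM, as added) and compounds at several concentrations; lipid droplets imaged by 488-nm laser-scanning cytometry, 500–530 nm intensity and object ratio to cell channel. Percent activity normalized to 20 uM Triacsin C.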

[1] = measured here: lipid fluorescence (Fed channel) AC50, cells fed with added oleic acid
[2] = measured here: cell number channel AC50, cells fed with added oleic acid

Compound: C1=C2C[N+]3(CCCC3)CC2Cc2ccc3ccccc3c21 (stereo not drawn)
- cell number change: 18.5%
- AC50 [1]: 0.651 µM [falling, single point]

Compound: O=C(Nc1ccc(NC(=O)c2ccco2)nc1)c1cccc(F)c1
- cell number change: 19.8%
- AC50 [1]: 0.58 µM [falling, single point]

Compound: COc1ccc(S(=O)(=O)N2CCOCC2)cc1NC(=O)CSc1nnc(N)s1
- AC50 [2]: 0.517 µM [rising, full curve]
- AC50 [1]: 1.03 µM [rising, partial curve]

Compound: N#Cc1c(SCc2cccc(Cl)c2)sc(C(=O)c2ccccc2)c1N
- cell number change: 37.6%
- AC50 [2]: 1.46 µM [rising, partial curve, poor fit]
- AC50 [1]: 3.66 µM [rising, partial curve]

Compound: Cc1nn(C)cc1S(=O)(=O)N1CCN(c2cccc(Cl)c2)CC1
- cell number change: 21.8%
- AC50 [1]: 20 µM [rising, partial curve, poor fit]

Compound: COc1ccc(Cl)cc1NC(=O)CN(C)C(=O)C1CCN(C(=O)Nc2ccccc2)CC1
- cell number change: 6.22%

Compound: N#C/C(=C\c1cn(-c2ccccc2)nc1-c1cc2ccccc2o1)c1nc2ccccc2[nH]1
- cell number change: 33%
- AC50 [2]: 4.11 µM [rising, full curve]
- AC50 [1]: 1.3 µM [rising, partial curve]

Compound: CC(OC(=O)c1ccc2c(=O)n3c(nc2c1)CCC3)C(=O)NC1CCCCC1C (stereo not drawn)
- cell number change: -25.2%

Compound: CCOc1ccc2c(c1)-c1c(ssc1=S)C(C)(C)N2C(=O)CSC1=NCCS1
- cell number change: -75.3%
- AC50 [2]: 29.1 µM [falling, single point]
- AC50 [1]: 23.1 µM [falling, single point]

Compound: CCCCN1C(=O)C(O)=C(C(C)=O)C1c1ccccc1 (stereo not drawn)
- cell number change: -45.6%
- AC50 [2]: 16.4 µM [falling, single point]
- AC50 [1]: 14.6 µM [falling, partial curve]

Compound: Cn1ccnc1SCC(=O)n1c2c(c3ccccc31)CCCC2
- cell number change: -21.8%
- AC50 [1]: 0.58 µM [falling, full curve, poor fit]

Compound: CC(C)[C@H](NS(=O)(=O)c1ccccc1)C(=O)OCC(=O)N1N=C(c2ccc(Cl)cc2)CC1c1ccco1 (stereo partly drawn)
- cell number change: 22.1%
- AC50 [2]: 0.0411 µM [rising, full curve, poor fit]
- AC50 [1]: 4.61 µM [rising, full curve]

Compound: Nc1ccccc1C(=O)/C=C/c1ccc2c(c1)OCO2
- AC50 [1]: 2.91 µM [rising, single point]

Compound: COC(=O)c1cc(S(=O)(=O)NCC2CCN(Cc3ccc(F)cc3)CC2)cn1C
- cell number change: -12.7%

Compound: COc1ccc(C(=O)Nc2ccccc2C(=O)N2CCOCC2)cc1Br
- cell number change: -38.8%
- AC50 [2]: 10.3 µM [falling, single point]
- AC50 [1]: 13 µM [falling, partial curve, poor fit]

Compound: CCN(C(=S)Nc1cccnc1)c1cccc2ccccc12
- cell number change: -19.1%

Compound: CCOC(=O)c1c(C)[nH]c(C(=O)OCCOc2ccccc2C)c1C
- cell number change: -29%
- AC50 [1]: 29.1 µM [falling, single point]

Compound: CCC(C)C(=O)Nc1cc(C(=O)OC)ccc1C(=O)OC (stereo not drawn)
- cell number change: 30.2%
- AC50 [2]: 23.1 µM [rising, single point]
- AC50 [1]: 3.66 µM [rising, partial curve]

Compound: Cc1ccc(S(=O)(=O)CCC(=O)NC2CCCC2)cc1
- cell number change: 22.5%

Compound: CC1(C)CC(=O)/C(=C(\O)c2ccccc2)C(=NCCc2ccccc2)C1
- cell number change: 5.56%
- AC50 [1]: 5.8 µM [rising, partial curve]

Compound: Cc1ccc(NC(=O)CN(C)C(=O)CSc2nnc(NC(C)C)s2)cc1
- cell number change: -50%
- AC50 [2]: 2.06 µM [falling, full curve]

Compound: CCOc1ccc(-n2ccc(=O)c(C(=O)O)n2)cc1
- cell number change: -17.2%

Compound: CC(=O)Nc1cn(-c2ccccc2)nc1-c1ccccc1
- cell number change: 12.5%
- AC50 [1]: 6.51 µM [falling, single point]

Compound: Cc1cccn2c(=O)c3cc(C(=O)NCC4CCCO4)c(=N)n(CCc4ccccc4)c3nc12 (stereo not drawn)
- cell number change: 5.13%

Compound: CCOc1ccc(Nc2nnc(Cc3ccc(OC)cc3)c(=O)[nH]2)cc1
- cell number change: -1.59%
- AC50 [2]: 0.291 µM [falling, full curve]

Compound: Cc1cc(C(=O)COC(=O)C23CC4CC(CC(O)(C4)C2)C3)c(C)n1-c1c(C)n(C)n(-c2ccccc2)c1=O
- cell number change: -0.137%

Compound: COCCn1cnnc1SCC(=O)Nc1ccccc1C(=O)Nc1ccc2c(c1)OCO2
- cell number change: 27.5%
- AC50 [1]: 10.3 µM [rising, partial curve, poor fit]

Compound: Cc1ccc(OCC(=O)NCCC2=CCCCC2)cc1
- AC50 [1]: 29.1 µM [falling, single point]

Compound: COc1ccc[nH]c1=O
- cell number change: 35.2%
- AC50 [1]: 2.06 µM [falling, partial curve]

Compound: CCCCn1c(N)c(N(CC(C)C)C(=O)CN2C(=O)C3CCCCC3C2=O)c(=O)[nH]c1=O (stereo not drawn)
- cell number change: -50%
- AC50 [2]: 2.06 µM [falling, partial curve, poor fit]

Compound: COc1ccc(/C=C/C(=O)c2ccc(NC(=O)c3cccs3)cc2)cc1OC
- AC50 [1]: 18.4 µM [rising, single point]
